Experimental data reported in article PMC7873701.
No constants are given. Whether binding was seen depends on the method and setting. Binding seen in cells or lysates may run through a third protein. These calls come from enrichment with a bait or labelling near it, and not all partners need be listed.

The chains behind the UniProt entries cited, without tags or fusion partners.
UniProt Q9UHD9: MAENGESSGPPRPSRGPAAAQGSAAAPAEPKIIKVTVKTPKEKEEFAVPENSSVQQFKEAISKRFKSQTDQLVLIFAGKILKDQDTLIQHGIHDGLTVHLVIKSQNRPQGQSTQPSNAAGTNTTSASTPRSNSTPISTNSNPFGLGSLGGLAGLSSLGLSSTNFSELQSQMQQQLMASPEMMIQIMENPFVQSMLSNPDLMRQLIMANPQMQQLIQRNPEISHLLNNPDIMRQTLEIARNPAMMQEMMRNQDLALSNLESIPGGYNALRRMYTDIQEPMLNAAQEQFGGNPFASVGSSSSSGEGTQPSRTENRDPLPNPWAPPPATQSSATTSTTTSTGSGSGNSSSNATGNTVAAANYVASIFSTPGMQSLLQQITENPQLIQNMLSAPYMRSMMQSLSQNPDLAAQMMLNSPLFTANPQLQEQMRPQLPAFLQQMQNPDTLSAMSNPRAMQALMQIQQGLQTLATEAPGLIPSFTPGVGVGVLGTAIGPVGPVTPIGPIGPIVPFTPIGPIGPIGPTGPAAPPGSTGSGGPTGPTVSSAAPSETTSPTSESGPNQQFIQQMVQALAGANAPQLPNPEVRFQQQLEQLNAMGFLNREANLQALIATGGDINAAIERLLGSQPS
UniProt Q9Y6I3: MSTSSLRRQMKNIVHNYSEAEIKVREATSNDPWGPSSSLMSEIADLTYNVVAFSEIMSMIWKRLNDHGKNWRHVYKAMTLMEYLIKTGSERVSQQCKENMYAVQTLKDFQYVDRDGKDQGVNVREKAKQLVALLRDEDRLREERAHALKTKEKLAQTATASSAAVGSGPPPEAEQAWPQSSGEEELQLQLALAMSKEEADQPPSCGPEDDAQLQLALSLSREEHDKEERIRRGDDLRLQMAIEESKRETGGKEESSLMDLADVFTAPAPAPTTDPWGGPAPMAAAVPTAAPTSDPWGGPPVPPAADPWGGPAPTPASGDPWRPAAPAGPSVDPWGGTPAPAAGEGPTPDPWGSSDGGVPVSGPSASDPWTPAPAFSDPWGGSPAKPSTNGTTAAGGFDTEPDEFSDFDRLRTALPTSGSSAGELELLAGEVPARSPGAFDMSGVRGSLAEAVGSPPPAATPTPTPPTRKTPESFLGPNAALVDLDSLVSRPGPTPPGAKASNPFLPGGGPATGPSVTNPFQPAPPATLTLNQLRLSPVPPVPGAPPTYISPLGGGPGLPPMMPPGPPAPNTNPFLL

Target: V5-APEX2-UBQLN2 (human (cDNA from UBQLN2-expressing HEK 293 cells)) (UniProt Q9UHD9)
Experiment: proximity labelling; V5-APEX2-UBQLN2 transfected into UBQLN1, 2, 4 TKO HEK 293 cells; 500 uM biotin-phenol 1 h, 1 mM hydrogen peroxide 1 min; streptavidin pulldown of biotinylated proteins, TMT LC-MS3; enrichment counted against APEX2-UBQLN1 samples

Row | binding | Molecule
1 | binds | epsin EPN1 (from UniProt Q9Y6I3 1-576)
2 | binds | epsin EPN2 (protein, UniProt O95208 1-641) MTTSSIRRQMKNIVNNYSEAEIKVREATSNDPWGPSSSLMTEIADLTYNVVAFSEIMSMVWKRLNDHGKNWRHVYKALTLLDYLIKTGSERVAQQCRENIFAIQTLKDFQYIDRDGKDQGINVREKSKQLVALLKDEERLKAERAQALKTKERMAQVATGMGSNQITFGRGSSQPNLSTSHSEQEYGKAGGSPASYHGSPEASLCPQHRTGAPLGQSEELQPLSQRHPFLPHLGLASRPNGDWSQPCLTCDRAARATSPRVSSELEQARPQTSGEEELQLQLALAMSREVAEQEERLRRGDDLRLQMALEESRRDTVKIPKKKEHGSLPQQTTLLDLMDALPSSGPAAQKAEPWGPSASTNQTNPWGGPAAPASTSDPWPSFGTKPAASIDPWGVPTGATVQSVPKNSDPWAASQQPASSAGKRASDAWGAVSTTKPVSVSGSFELFSNLNGTIKDDFSEFDNLRTSKKTAESVTSLPSQNNGTTSPDPFESQPLTVASSKPSSARKTPESFLGPNAALVNLDSLVTRPAPPAQSLNPFLAPGAPATSAPVNPFQVNQPQPLTLNQLRGSPVLGTSTSFGPGPGVESMAVASMTSAAPQPALGATGSSLTPLGPAMMNMVGSVGIPPSAAQATGTTNPFLL
3 | binds | epidermal growth factor receptor substrate 15 (EPS15) (protein, UniProt P42566 1-896) MAAAAQLSLTQLSSGNPVYEKYYRQVDTGNTGRVLASDAAAFLKKSGLPDLILGKIWDLADTDGKGILNKQEFFVALRLVACAQNGLEVSLSSLNLAVPPPRFHDTSSPLLISGTSAAELPWAVKPEDKAKYDAIFDSLSPVNGFLSGDKVKPVLLNSKLPVDILGRVWELSDIDHDGMLDRDEFAVAMFLVYCALEKEPVPMSLPPALVPPSKRKTWVVSPAEKAKYDEIFLKTDKDMDGFVSGLEVREIFLKTGLPSTLLAHIWSLCDTKDCGKLSKDQFALAFHLISQKLIKGIDPPHVLTPEMIPPSDRASLQKNIIGSSPVADFSAIKELDTLNNEIVDLQREKNNVEQDLKEKEDTIKQRTSEVQDLQDEVQRENTNLQKLQAQKQQVQELLDELDEQKAQLEEQLKEVRKKCAEEAQLISSLKAELTSQESQISTYEEELAKAREELSRLQQETAELEESVESGKAQLEPLQQHLQDSQQEISSMQMKLMEMKDLENHNSQLNWCSSPHSILVNGATDYCSLSTSSSETANLNEHVEGQSNLESEPIHQESPARSSPELLPSGVTDENEVTTAVTEKVCSELDNNRHSKEEDPFNVDSSSLTGPVADTNLDFFQSDPFVGSDPFKDDPFGKIDPFGGDPFKGSDPFASDCFFRQSTDPFATSSTDPFSAANNSSITSVETLKHNDPFAPGGTVVAASDSATDPFASVFGNESFGGGFADFSTLSKVNNEDPFRSATSSSVSNVVITKNVFEETSVKSEDEPPALPPKIGTPTRPCPLPPGKRSINKLDSPDPFKLNDPFQPFPGNDSPKEKDPEIFCDPFTSATTTTNKEADPSNFANFSAYPSEEDMIEWAKRESEREEEQRLARLNQQEQEDLELAIALSKSEISEA
